Publication PMC11830007
Results are given in words; binding and its absence hold for the method and conditions named. In cells and extracts the contact can be indirect. Some entries that bind do so weakly or less than the wild type. Blank lines part the entries; values can stand above or below the molecule they belong to.

Amino acid sequences for entries named in this document (tags omitted). A change or cut given only in a name is not applied to a line headed by its entry. Chains listed by the source or under a name are the forms on record and can include a tag or linker.
SGF29-C-D194A (Q96ES7, form named): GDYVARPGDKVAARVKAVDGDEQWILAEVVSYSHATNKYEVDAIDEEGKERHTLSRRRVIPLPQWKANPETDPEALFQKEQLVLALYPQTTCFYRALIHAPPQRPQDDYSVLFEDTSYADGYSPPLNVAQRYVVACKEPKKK
SGF29-C-R207P (Q96ES7, form named): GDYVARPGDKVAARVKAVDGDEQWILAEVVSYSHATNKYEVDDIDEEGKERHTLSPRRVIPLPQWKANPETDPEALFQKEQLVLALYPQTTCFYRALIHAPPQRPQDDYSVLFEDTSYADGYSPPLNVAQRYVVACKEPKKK
UniProt P08047: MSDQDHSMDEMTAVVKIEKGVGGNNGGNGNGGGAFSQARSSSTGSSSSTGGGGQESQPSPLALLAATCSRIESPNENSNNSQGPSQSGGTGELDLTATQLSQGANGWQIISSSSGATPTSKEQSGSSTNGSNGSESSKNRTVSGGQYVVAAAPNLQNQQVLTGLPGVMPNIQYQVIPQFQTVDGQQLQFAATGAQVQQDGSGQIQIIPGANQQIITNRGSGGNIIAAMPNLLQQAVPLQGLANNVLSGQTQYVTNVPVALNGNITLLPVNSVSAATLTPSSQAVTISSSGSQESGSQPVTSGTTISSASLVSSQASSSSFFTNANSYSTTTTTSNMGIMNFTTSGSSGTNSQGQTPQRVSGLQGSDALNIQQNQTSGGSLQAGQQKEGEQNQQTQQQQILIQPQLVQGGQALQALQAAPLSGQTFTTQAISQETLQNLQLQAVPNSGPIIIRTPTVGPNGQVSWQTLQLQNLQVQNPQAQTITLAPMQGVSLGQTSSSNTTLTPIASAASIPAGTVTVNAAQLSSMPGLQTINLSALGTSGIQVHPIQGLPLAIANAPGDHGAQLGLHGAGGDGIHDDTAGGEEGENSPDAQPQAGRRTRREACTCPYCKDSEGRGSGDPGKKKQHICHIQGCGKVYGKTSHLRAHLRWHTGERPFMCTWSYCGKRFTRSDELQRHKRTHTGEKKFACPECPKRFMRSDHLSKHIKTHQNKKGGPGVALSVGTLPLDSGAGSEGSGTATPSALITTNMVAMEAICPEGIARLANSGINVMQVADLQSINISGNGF

Columns and labels:
SGF29-C-D194A = SGF29-C-D194A (UniProt Q96ES7); experiment: co-sedimentation; pelleting assay with purified recombinant SGF29-C-D194A or SGF29-C-R207P
SGF29-C-R207P = SGF29-C-R207P (UniProt Q96ES7); experiment: as above

binding (SGF29-C-D194A): binds | binding (SGF29-C-R207P): binds
Molecule: SP1 (from UniProt P08047 1-785)

binding (SGF29-C-D194A): binds | binding (SGF29-C-R207P): binds
B1: MED4 (protein, UniProt Q9NPJ6 1-270)
chain: MAASSSGEKEKERLGGGLGVAGGNSTRERLLSALEDLEVLSRELIEMLAISRNQKLLQAGEENQVLELLIHRDGEFQELMKLALNQGKIHHEMQVLEKEVEKRDSDIQQLQKQLKEAEQILATAVYQAKEKLKSIEKARKGAISSEEIIKYAHRISASNAVCAPLTWVPGDPRRPYPTDLEMRSGLLGQMNNPSTNGVNGHLPGDALAAGRLPDVLAPQYPWQSNDMSMNMLPPNHSSDFLLEPPGHNKENEDDVEIMSTDSSSSSSESD
